Earlier results as cited in patent US9968649B2, “Vasopressin formulations for use in treatment of hypotension” (Par Pharmaceutical, Inc., priority 2015, dated 2018).

Tested on: healthy subjects
Details: in vivo; cited from earlier work

CN1CC[C@]23c4c5ccc(O)c4O[C@H]2[C@@H](O)C=C[C@H]3[C@H]1C5 [morphine]
impact on exposure to endogenous vasopressin: do not impact exposure
